Test results from patent publication US9694090B2, “Process for preparing hyperpolarized substrates and method for MRI” (priority 2010, dated 2017).

Tests used:
[1] = DNP solid-state polarization signal and build-up (1.2 K, 3.35 T); details: for Solid state signal: DNP at 1.2 K, 3.35 T; for Polarization of ester relative to the corresponding acid: solid state, compared with example a of the same number
[2] = Liquid state polarization after DNP and dissolution; details: after 60 min DNP and dissolution in phosphate buffer

SMILES	Solid state signal [1]	Polarization of ester relative to the corresponding acid [1]	Liquid state polarization [2]
C=C(CC(=O)OCC)[13C](=O)OCC [1-13C Itaconate diethyl ester]	340 area in arbitrary units divided by mmol 13C	2.3 times	
C=C(CC(=O)O)[13C](=O)O [1-13C Itaconic acid, reference compound]	150 area in arbitrary units divided by mmol 13C		
CCO[13C](=O)C1CSC(=O)N1 (stereo not shown) [1-13C OTZ ethyl ester]	380 area in arbitrary units divided by mmol 13C	1.2 times	
O=C1N[C@H]([13C](=O)O)CS1 [1-13C OTZ, 1-13C-L-oxothiazolidine-4-carboxylic acid, reference compound]	305 area in arbitrary units divided by mmol 13C		
O=C1CCC([13C](=O)O)N1 (stereo not shown) [1-13C Pyroglutamic acid, reference compound]	75 area in arbitrary units divided by mmol 13C		
CCOC(=O)C1CCC(=O)N1 (stereo not shown) [1-13C pyroglutamic ethyl ester]	350 area in arbitrary units divided by mmol 13C	more than 4.5 times	
[2H][13C]([2H])(N)C(=O)O [2-13C-d2-Glycine, reference compound]	280 area in arbitrary units divided by mmol 13C		12.5%
[2H][13C]([2H])(NC(C)=O)C(=O)O [2-13C-d2-N-acetyl glycine]	376 area in arbitrary units divided by mmol 13C		21%
